# Data from patent US20240398899A1 (priority 2021, published 2024).
# Where a name gives a salt, the structure may show the parent alone.
# Tests used:
# Type in all cases: in vivo, Mus musculus (Swiss Albino)
# Swiss albino mice = test: Passive avoidance test, scopolamine induced dementia; details: for Mean Transfer Latency Time: G3: 2.5 mg/kg p.o. qdx14, scopolamine 2.5 mg/kg i.p., hydrochloride
# Protocol: Required amount of recombinant lectin protein having SEQ ID NO: 1 was diluted in sterile Tris Buffered Saline (TBS) to achieve desired final concentration, i.e 0.1 mg/mL, 0.05 mg/mL, 0.025 mg/mL, at the doses of 0.5 mg/kg, 0.25 mg/kg and 0.125 mg/kg respectively. Formulation was prepared fresh daily.
# TBS buffer and 0.5% CMC were used as a vehicle for preparation of test item, recombinant Lectin having SEQ ID NO: 1 and reference item formulation, respectively Male Mus musculus (Swiss Albino) aged between 8-10 weeks procured from GENTOX Bio services Pvt Ltd, Hyderabad. Animals were classified into 6 groups and acclimatized for two weeks. Animals were identified by cage labelling and tail marking and were randomized on the basis of their body weight.
# Healthy male Swiss albino mice (n=48) were selected and randomized based on body weight (n=8 per Group) into 6 groups as mentioned in table no-1. The control group G1 was treated intravenously with vehicle daily till the experiment completion. Group G2 was considered as negative control and treated with vehicle. […] Group G4, G5 &G6 animals were treated with the test item recombinant lectin protein having SEQ ID NO: 1 at the dose of 0.5 mg/kg, 0.25 mg/kg and 0.125 mg/kg, respectively. All the test items were given intravenously (i.v) daily at the dose volume of 5 ml/kg for 14 Days. The body weight was recorded daily throughout the experimental period. […] One hour after the last dose of test items (on Day 14) all the animals were injected with scopolamine hydrobromide at the dose of 2.5 mg/kg, i.p., except the normal control group G1. Passive avoidance test was conducted 30 min after scopolamine injection. […]
# For the training trial, the mice were initially placed in the illuminated chamber. […] The latency times once the mice entered from light compartment to the dark compartment was recorded using in-build timer. A test trial was performed 24 h following the training trial, and latency times to re-enter the dark chamber was measured up to 5 min
# [1] = tested on: Brain NGF (Nerve Growth Factor); test: Brain biomarker ELISA, scopolamine induced dementia
# Description: (§1) Brain was dissected into two portions
# TNF alpha = test: as above; details: mice
# Description: as §1
# [2] = tested on: Cerebral Cortex and Hippocampus; test: Brain histopathology (H&E), scopolamine induced dementia; details: G3: 2.5 mg/kg p.o. qdx14, score 0 normal to 4 diffused neuronal injury
# Protocol: Mouse brains were collected after humane sacrifice and fixed in 10% neutral buffered formalin. Then, the brain tissue was trimmed, processed and embedded in paraffin. 5 Micron sections were prepared in slide as a specimen for hematoxylin-eosin (H&E) staining. The hippocampal lesions were assessed microscopically at 100× magnification.
# Detailed histological investigation was performed H&E stained brain tissues. Scoring was given according to the neuronal damage. […] The grading criteria for Histopathology score was: Normal or no injury—0; Rare neuronal injury (<5 clusters)—1; Occasional neuronal injury (5-15 clusters)—2; Frequent neuronal injury (>15 clusters)—3; Diffused neuronal injury-4.
smiles,measurement,setting,value
"COc1cc2c(cc1OC)C(=O)C(CC1CCN(Cc3ccccc3)CC1)C2 (stereo not drawn) [Donepezil hydrochloride, reference compound]",% increase in Transfer Latency Time,"Swiss albino mice; G3: 2.5 mg/kg p.o. qdx14, compared with G2 (scopolamine)",48.5%
same,Mean Transfer Latency Time,Swiss albino mice,110.61 s
same,Mean Transfer Latency Time,Swiss albino mice; listed as Donepezil,110.61 ± 7.02 s
same,brain nerve growth factor (NGF) Mean,"[1]; G3: 2.5 mg/kg p.o. qdx14, scopolamine 2.5 mg/kg i.p., mice",57 pg/mL
same,level of NGF (brain),"[1]; Positive control group, scopolamine treated mice",57 µg/mL
same,brain TNF-alpha Mean,"TNF alpha; G3: 2.5 mg/kg p.o. qdx14, scopolamine 2.5 mg/kg i.p.",155.81 pg/mL
same,level of TNF-α (brain),"TNF alpha; positive control group, donepezil and scopolamine",156 µg/mL
same,Histopathology (Mean score) Cerebral Cortex Cortex,[2],0
same,Histopathology (Mean score) Cerebral Cortex Meninges,[2],0
same,Histopathology (Mean score) Hippocampus CA1,[2],0
same,Histopathology (Mean score) Hippocampus CA3,[2],1.33
same,Histopathology (Mean score) Hippocampus DG,[2],0
